Some entries share one result that the patent states for a list of compounds.
Experiments:
Type in all cases: in vivo
Heliothis virescens = Heliothis virescens (tobacco budworm) egg/artificial diet test; details: 200 ppm (concentration in well 18 ppm), eggs 0-24 h old on artificial diet, 4 days; egg mortality, larval mortality, growth regulation
Method: Heliothis virescens (Tobacco Budworm): Eggs (0-24 h old) were placed in 24-well microtiter plate on artificial diet and treated with test solutions at an application rate of 200 ppm (concentration in well 18 ppm) by pipetting. After an incubation period of 4 days, samples were checked for egg mortality, larval mortality, and growth regulation.

Spodoptera littoralis = Spodoptera littoralis (Egyptian cotton leafworm) cotton leaf disc spray test; details: 200 ppm spray on cotton leaf discs, L1 larvae, 3 DAT; mortality, feeding behavior, growth regulation
Text: Spodoptera littoralis (Egyptian Cotton Leafworm) Cotton leaf discs were placed on agar in a 24-well microtiter plate and sprayed with test solutions at an application rate of 200 ppm. After drying, the leaf discs were infested with 5 L1 larvae. The samples were checked for mortality, feeding behavior, and growth regulation 3 days after treatment (DAT).

Diabrotica balteata = Diabrotica balteata (corn root worm) artificial diet test; details: 200 ppm (concentration in well 18 ppm), L2 larvae, 5 days, larval mortality, growth regulation
Method: Diabrotica Balteata (Corn Root Worm): A 24-well microtiter plate (MTP) with artificial diet was treated with test solutions at an application rate of 200 ppm (concentration in well 18 ppm) by pipetting. After drying, the MTP's were infested with larvae (L2) (6-10 per well). After an incubation period of 5 days, samples were checked for larval mortality, and growth regulation.

Plutella xylostella = Plutella xylostella (diamond back moth) artificial diet test; details: 200 ppm (concentration in well 18 ppm), L2 larvae, 6 days, larval mortality, growth regulation
Method: Plutella xylostella (Diamond Back Moth): 24-well microtiter plate (MTP) with artificial diet was treated with test solutions at an application rate of 200 ppm (concentration in well 18 ppm) by pipetting. After drying, the MTP's were infested with L2 larvae (7-12 per well). After an incubation period of 6 days, samples were checked for larval mortality and growth regulation.

O=C(Nc1c(C2CC[N+]([O-])(Cc3ccc(-c4ccc(F)cc4)cc3)CC2)nc(Cl)c(Cl)c1Cl)c1ccnc(Cl)c1 (stereo not shown) [Compound D18]
at least 80%: control of Heliothis virescens (Heliothis virescens) | control of Spodoptera littoralis (Spodoptera littoralis) | control of Diabrotica balteata (Diabrotica balteata) | control of Plutella xylostella (Plutella xylostella)

O=C(Nc1ccc(C(F)(F)F)nc1C1CCN(Cc2ccc(-c3ccc(Cl)cc3)cc2)CC1)c1ccnc(Cl)c1 [Compound C28]
at least 80%: control of Heliothis virescens (Heliothis virescens) | control of Spodoptera littoralis (Spodoptera littoralis) | control of Diabrotica balteata (Diabrotica balteata) | control of Plutella xylostella (Plutella xylostella)

O=C(Nc1ccc(C(F)(F)F)nc1C1CCN(Cc2ccc(-c3ccc(F)cc3)cc2)CC1)c1ccnc(C(F)(F)Cl)c1 [Compound C7]
at least 80%: control of Heliothis virescens (Heliothis virescens) | control of Spodoptera littoralis (Spodoptera littoralis) | control of Diabrotica balteata (Diabrotica balteata) | control of Plutella xylostella (Plutella xylostella)

O=C(Nc1cc(F)c(C2CC2)nc1C1CCN(Cc2ccc(-c3ccc(F)cc3)cc2)CC1)c1ccnc(Cl)c1 [Compound C21]
at least 80%: control of Heliothis virescens (Heliothis virescens) | control of Spodoptera littoralis (Spodoptera littoralis) | control of Diabrotica balteata (Diabrotica balteata) | control of Plutella xylostella (Plutella xylostella)

O=C(Nc1cc(F)c(C2CC2)cc1C1CC[N+]([O-])(Cc2ccc(-c3ccc(F)cc3)cc2)CC1)c1ccnc(Cl)c1 (stereo not shown) [Compound B23]
at least 80%: control of Heliothis virescens (Heliothis virescens) | control of Spodoptera littoralis (Spodoptera littoralis) | control of Diabrotica balteata (Diabrotica balteata) | control of Plutella xylostella (Plutella xylostella)

Cc1ccc(-c2ccc(CN3CCC(c4cc(F)ccc4NC(=O)c4ccnc(Cl)c4)CC3)cc2)cc1 [Compound A28]
at least 80%: control of Heliothis virescens (Heliothis virescens) | control of Spodoptera littoralis (Spodoptera littoralis) | control of Diabrotica balteata (Diabrotica balteata) | control of Plutella xylostella (Plutella xylostella)

O=C(Nc1cc(Cl)c(Cl)nc1C1CCN(Cc2ccc(-c3ccc(F)cc3)cc2)CC1)c1ccnc(F)c1 [Compound C19]
at least 80%: control of Heliothis virescens (Heliothis virescens) | control of Spodoptera littoralis (Spodoptera littoralis) | control of Diabrotica balteata (Diabrotica balteata) | control of Plutella xylostella (Plutella xylostella)

O=C(Nc1ccc(OC(F)F)cc1C1CCN(Cc2ccc(-c3ccc(F)cc3)cc2)CC1)c1ccnc(F)c1 [Compound A9]
at least 80%: control of Heliothis virescens (Heliothis virescens) | control of Spodoptera littoralis (Spodoptera littoralis) | control of Diabrotica balteata (Diabrotica balteata) | control of Plutella xylostella (Plutella xylostella)

O=C(Nc1cc(Cl)c(Cl)nc1C1CC[N+]([O-])(Cc2ccc(-c3ccc(F)cc3)cc2)CC1)c1ccnc(Cl)c1 (stereo not shown) [Compound D2]
at least 80%: control of Heliothis virescens (Heliothis virescens) | control of Spodoptera littoralis (Spodoptera littoralis) | control of Diabrotica balteata (Diabrotica balteata) | control of Plutella xylostella (Plutella xylostella)

O=C(Nc1cc(Cl)c(C(F)(F)F)cc1C1CC[N+]([O-])(Cc2ccc(-c3ccc(F)cc3)cc2)CC1)c1ccnc(Cl)c1 (stereo not shown) [Compound B25]
at least 80%: control of Heliothis virescens (Heliothis virescens) | control of Spodoptera littoralis (Spodoptera littoralis) | control of Diabrotica balteata (Diabrotica balteata) | control of Plutella xylostella (Plutella xylostella)

O=C(Nc1cc(F)c(Br)cc1C1CCN(Cc2ccc(-c3ccc(F)cc3)cc2)CC1)c1ccnc(Cl)c1 [Compound A14]
at least 80%: control of Heliothis virescens (Heliothis virescens) | control of Spodoptera littoralis (Spodoptera littoralis) | control of Diabrotica balteata (Diabrotica balteata) | control of Plutella xylostella (Plutella xylostella)

O=C(Nc1ccc(Cl)c(F)c1C1CCN(Cc2ccc(-c3ccc(F)cc3)cc2)CC1)c1ccnc(Cl)c1 [Compound E3]
at least 80%: control of Heliothis virescens (Heliothis virescens) | control of Spodoptera littoralis (Spodoptera littoralis) | control of Diabrotica balteata (Diabrotica balteata) | control of Plutella xylostella (Plutella xylostella)

O=C(Nc1cc(F)c(Br)cc1C1CCN(Cc2ccc(-c3ccc(F)cc3)cc2)CC1)c1cc(Cl)nc(Cl)c1 [Compound A33]
at least 80%: control of Heliothis virescens (Heliothis virescens) | control of Spodoptera littoralis (Spodoptera littoralis) | control of Diabrotica balteata (Diabrotica balteata) | control of Plutella xylostella (Plutella xylostella)

O=C(Nc1cc(Cl)c(F)cc1C1CCN(Cc2ccc(-c3ccc(F)cc3)cc2)CC1)c1ccnc(Cl)c1 [Compound A35]
at least 80%: control of Heliothis virescens (Heliothis virescens) | control of Spodoptera littoralis (Spodoptera littoralis) | control of Diabrotica balteata (Diabrotica balteata) | control of Plutella xylostella (Plutella xylostella)

O=C(Nc1ccc(F)cc1C1CCN(Cc2ccc(-c3ccc(F)cc3)cc2)CC1)c1ccnc(Br)c1 [Compound A22]
at least 80%: control of Heliothis virescens (Heliothis virescens) | control of Spodoptera littoralis (Spodoptera littoralis) | control of Diabrotica balteata (Diabrotica balteata) | control of Plutella xylostella (Plutella xylostella)

O=C(Nc1ccc(OC(F)F)nc1C1CC[N+]([O-])(Cc2ccc(-c3ccc(F)cc3)cc2)CC1)c1ccnc(Cl)c1 (stereo not shown) [Compound D26]
at least 80%: control of Heliothis virescens (Heliothis virescens) | control of Spodoptera littoralis (Spodoptera littoralis) | control of Diabrotica balteata (Diabrotica balteata) | control of Plutella xylostella (Plutella xylostella)

O=C(Nc1cc(F)c(Cl)cc1C1CCN(Cc2ccc(-c3ccc(F)cc3)cc2)CC1)c1ccnc(Cl)c1 [Compound A15]
at least 80%: control of Heliothis virescens (Heliothis virescens) | control of Spodoptera littoralis (Spodoptera littoralis) | control of Diabrotica balteata (Diabrotica balteata) | control of Plutella xylostella (Plutella xylostella)

O=C(Nc1ccc(F)cc1C1CC[N+]([O-])(Cc2ccc(-c3ccc(F)cc3)cc2)CC1)c1ccnc(Cl)c1 (stereo not shown) [Compound B4]
at least 80%: control of Heliothis virescens (Heliothis virescens) | control of Spodoptera littoralis (Spodoptera littoralis) | control of Diabrotica balteata (Diabrotica balteata) | control of Plutella xylostella (Plutella xylostella)

COc1ccc(-c2ccc(C[N+]3([O-])CCC(c4nc(C(F)(F)F)ccc4NC(=O)c4ccnc(Cl)c4)CC3)cc2)cc1 (stereo not shown) [Compound D23]
at least 80%: control of Heliothis virescens (Heliothis virescens) | control of Spodoptera littoralis (Spodoptera littoralis) | control of Diabrotica balteata (Diabrotica balteata) | control of Plutella xylostella (Plutella xylostella)

O=C(Nc1ccc(Cl)cc1C1CCN(Cc2ccc(-c3ccc(F)cc3)cc2)CC1)c1ccnc(Cl)c1 [Compound A13]
at least 80%: control of Heliothis virescens (Heliothis virescens) | control of Spodoptera littoralis (Spodoptera littoralis) | control of Diabrotica balteata (Diabrotica balteata) | control of Plutella xylostella (Plutella xylostella)

O=C(Nc1ccc(F)cc1C1CCN(Cc2ccc(-c3ccc(C(F)(F)F)cc3)cc2)CC1)c1ccnc(Cl)c1 [Compound A25]
at least 80%: control of Heliothis virescens (Heliothis virescens) | control of Spodoptera littoralis (Spodoptera littoralis) | control of Diabrotica balteata (Diabrotica balteata) | control of Plutella xylostella (Plutella xylostella)

O=C(Nc1ccc(Br)c(F)c1C1CCN(Cc2ccc(-c3ccc(F)cc3)cc2)CC1)c1ccnc(Cl)c1 [Compound E5]
at least 80%: control of Heliothis virescens (Heliothis virescens) | control of Spodoptera littoralis (Spodoptera littoralis) | control of Diabrotica balteata (Diabrotica balteata) | control of Plutella xylostella (Plutella xylostella)

O=C(Nc1cc(Cl)c(OC(F)(F)F)cc1C1CCN(Cc2ccc(-c3ccc(F)cc3)cc2)CC1)c1ccnc(Cl)c1 [Compound A34]
at least 80%: control of Heliothis virescens (Heliothis virescens) | control of Spodoptera littoralis (Spodoptera littoralis) | control of Diabrotica balteata (Diabrotica balteata) | control of Plutella xylostella (Plutella xylostella)

O=C(Nc1ccc(C(F)(F)F)nc1C1CC[N+]([O-])(Cc2ccc(-c3ccc(F)cc3)cc2)CC1)c1cc(Cl)nc(Cl)c1 (stereo not shown) [Compound D4]
at least 80%: control of Heliothis virescens (Heliothis virescens) | control of Spodoptera littoralis (Spodoptera littoralis) | control of Diabrotica balteata (Diabrotica balteata) | control of Plutella xylostella (Plutella xylostella)

O=C(Nc1cc(Cl)ccc1C1CCN(Cc2ccc(-c3ccc(F)cc3)cc2)CC1)c1ccnc(Cl)c1 [Compound A16]
at least 80%: control of Heliothis virescens (Heliothis virescens) | control of Spodoptera littoralis (Spodoptera littoralis) | control of Diabrotica balteata (Diabrotica balteata) | control of Plutella xylostella (Plutella xylostella)

O=C(Nc1ccc(C(F)(F)F)cc1C1CCN(Cc2ccc(-c3ccc(C(F)(F)F)cc3)cc2)CC1)c1ccnc(Cl)c1 [Compound A32]
at least 80%: control of Heliothis virescens (Heliothis virescens) | control of Spodoptera littoralis (Spodoptera littoralis) | control of Diabrotica balteata (Diabrotica balteata) | control of Plutella xylostella (Plutella xylostella)

O=C(Nc1ccc(F)cc1C1CCN(Cc2ccc(-c3ccc(F)cc3)cc2)CC1)c1cc(Cl)nc(Cl)c1 [Compound A23]
at least 80%: control of Heliothis virescens (Heliothis virescens) | control of Spodoptera littoralis (Spodoptera littoralis) | control of Diabrotica balteata (Diabrotica balteata) | control of Plutella xylostella (Plutella xylostella)

O=C(Nc1cc(Cl)c(Cl)nc1C1CC[N+]([O-])(Cc2ccc(-c3ccc(C(F)(F)F)cc3)cc2)CC1)c1ccnc(Cl)c1 (stereo not shown) [Compound D20]
at least 80%: control of Heliothis virescens (Heliothis virescens) | control of Spodoptera littoralis (Spodoptera littoralis) | control of Diabrotica balteata (Diabrotica balteata) | control of Plutella xylostella (Plutella xylostella)

— US10034476B2, “Insecticidal phenyl-or pyridyl-piperdine compounds” (Syngenta Participations AG, priority 2008, dated 2018)
